Test results reported in paper doi:10.1101/2023.12.15.571360.

The chains behind the UniProt entries cited, without tags or fusion partners.
UniProt P63104: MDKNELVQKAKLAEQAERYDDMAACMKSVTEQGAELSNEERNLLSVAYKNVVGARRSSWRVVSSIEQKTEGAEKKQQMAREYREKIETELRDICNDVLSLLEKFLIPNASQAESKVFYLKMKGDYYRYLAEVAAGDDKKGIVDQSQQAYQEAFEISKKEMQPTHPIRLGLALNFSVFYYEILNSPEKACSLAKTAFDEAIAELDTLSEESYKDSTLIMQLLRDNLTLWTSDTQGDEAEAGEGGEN
UniProt P00520: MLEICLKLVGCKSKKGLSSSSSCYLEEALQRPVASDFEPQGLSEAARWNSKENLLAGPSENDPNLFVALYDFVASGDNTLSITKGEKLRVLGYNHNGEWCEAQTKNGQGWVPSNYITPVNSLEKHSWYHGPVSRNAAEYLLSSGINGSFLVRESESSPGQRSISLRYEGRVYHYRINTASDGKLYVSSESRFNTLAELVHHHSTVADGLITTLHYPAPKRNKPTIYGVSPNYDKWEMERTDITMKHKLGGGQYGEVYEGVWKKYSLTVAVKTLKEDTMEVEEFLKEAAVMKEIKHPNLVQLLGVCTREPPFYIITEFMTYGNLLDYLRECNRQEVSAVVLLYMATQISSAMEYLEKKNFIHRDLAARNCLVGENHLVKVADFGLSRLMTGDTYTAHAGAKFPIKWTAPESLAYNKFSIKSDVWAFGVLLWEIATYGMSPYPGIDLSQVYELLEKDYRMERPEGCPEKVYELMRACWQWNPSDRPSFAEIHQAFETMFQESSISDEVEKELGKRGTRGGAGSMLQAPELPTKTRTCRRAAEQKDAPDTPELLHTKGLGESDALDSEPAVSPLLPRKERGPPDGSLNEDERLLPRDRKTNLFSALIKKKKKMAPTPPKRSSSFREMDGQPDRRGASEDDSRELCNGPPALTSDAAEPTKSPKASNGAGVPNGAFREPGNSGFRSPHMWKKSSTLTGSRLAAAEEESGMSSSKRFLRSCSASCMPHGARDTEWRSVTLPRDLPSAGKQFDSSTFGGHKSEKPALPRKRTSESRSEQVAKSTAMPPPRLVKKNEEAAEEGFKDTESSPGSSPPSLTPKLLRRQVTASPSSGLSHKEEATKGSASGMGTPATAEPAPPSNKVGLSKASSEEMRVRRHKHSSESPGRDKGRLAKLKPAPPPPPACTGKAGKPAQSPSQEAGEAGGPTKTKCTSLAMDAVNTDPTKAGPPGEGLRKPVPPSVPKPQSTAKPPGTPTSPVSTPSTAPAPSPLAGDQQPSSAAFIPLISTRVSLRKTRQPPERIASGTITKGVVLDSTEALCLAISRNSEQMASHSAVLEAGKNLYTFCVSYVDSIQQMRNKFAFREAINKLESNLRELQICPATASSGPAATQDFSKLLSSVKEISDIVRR
UniProt Q04735: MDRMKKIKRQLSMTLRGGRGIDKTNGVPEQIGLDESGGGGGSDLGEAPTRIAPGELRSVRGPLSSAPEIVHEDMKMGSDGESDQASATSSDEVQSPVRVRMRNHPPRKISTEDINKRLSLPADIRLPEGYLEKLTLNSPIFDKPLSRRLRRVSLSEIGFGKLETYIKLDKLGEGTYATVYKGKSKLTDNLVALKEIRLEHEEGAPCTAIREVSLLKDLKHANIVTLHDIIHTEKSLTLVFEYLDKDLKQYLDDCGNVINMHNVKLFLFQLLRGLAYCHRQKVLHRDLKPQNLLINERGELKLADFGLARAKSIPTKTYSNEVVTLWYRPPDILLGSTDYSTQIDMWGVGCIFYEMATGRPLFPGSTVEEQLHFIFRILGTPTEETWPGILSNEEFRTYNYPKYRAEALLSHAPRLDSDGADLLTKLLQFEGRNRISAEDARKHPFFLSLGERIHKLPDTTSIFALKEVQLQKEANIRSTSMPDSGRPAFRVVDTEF
UniProt P33173: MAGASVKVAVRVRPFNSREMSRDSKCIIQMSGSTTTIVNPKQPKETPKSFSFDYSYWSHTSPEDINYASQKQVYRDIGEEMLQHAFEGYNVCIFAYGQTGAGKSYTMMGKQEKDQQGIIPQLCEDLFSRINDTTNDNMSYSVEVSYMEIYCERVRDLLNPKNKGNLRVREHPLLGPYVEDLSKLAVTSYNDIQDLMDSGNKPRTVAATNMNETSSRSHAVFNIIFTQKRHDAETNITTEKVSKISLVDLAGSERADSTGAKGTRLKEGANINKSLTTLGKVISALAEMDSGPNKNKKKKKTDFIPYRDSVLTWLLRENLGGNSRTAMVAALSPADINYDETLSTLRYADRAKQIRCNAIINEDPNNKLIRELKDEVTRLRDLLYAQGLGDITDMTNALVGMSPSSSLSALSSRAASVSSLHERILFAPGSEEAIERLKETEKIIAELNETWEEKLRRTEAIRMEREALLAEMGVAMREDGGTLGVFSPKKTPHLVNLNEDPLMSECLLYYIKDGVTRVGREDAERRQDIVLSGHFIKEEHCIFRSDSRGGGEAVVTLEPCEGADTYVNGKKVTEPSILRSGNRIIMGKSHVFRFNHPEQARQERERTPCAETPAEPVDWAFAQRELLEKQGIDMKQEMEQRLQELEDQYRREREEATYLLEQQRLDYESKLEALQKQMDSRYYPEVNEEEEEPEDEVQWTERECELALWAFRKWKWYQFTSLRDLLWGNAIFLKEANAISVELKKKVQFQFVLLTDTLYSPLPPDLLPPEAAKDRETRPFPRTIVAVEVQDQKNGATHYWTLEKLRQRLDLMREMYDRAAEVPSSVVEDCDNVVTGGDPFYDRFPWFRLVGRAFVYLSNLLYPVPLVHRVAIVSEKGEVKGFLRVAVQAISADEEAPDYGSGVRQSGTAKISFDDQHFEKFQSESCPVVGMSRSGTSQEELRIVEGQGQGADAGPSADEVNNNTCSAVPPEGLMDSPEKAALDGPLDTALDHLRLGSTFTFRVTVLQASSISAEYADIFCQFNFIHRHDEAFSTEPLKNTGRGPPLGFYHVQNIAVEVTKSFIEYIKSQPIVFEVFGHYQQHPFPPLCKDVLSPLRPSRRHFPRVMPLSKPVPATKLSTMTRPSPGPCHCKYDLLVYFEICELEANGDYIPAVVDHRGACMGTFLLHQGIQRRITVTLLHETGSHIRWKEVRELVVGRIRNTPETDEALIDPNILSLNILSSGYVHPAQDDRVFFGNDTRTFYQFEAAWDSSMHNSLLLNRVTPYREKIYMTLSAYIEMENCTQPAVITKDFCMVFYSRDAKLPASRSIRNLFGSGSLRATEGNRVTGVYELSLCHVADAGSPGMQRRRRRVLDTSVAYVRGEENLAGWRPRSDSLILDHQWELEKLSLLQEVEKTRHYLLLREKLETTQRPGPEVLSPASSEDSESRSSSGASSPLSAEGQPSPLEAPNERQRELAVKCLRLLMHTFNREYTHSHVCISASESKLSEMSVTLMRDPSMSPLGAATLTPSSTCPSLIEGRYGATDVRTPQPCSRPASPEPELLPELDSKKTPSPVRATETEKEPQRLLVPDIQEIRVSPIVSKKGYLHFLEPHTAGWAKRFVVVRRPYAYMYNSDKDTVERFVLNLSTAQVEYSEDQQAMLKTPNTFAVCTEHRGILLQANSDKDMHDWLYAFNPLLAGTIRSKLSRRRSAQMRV
UniProt Q91W40: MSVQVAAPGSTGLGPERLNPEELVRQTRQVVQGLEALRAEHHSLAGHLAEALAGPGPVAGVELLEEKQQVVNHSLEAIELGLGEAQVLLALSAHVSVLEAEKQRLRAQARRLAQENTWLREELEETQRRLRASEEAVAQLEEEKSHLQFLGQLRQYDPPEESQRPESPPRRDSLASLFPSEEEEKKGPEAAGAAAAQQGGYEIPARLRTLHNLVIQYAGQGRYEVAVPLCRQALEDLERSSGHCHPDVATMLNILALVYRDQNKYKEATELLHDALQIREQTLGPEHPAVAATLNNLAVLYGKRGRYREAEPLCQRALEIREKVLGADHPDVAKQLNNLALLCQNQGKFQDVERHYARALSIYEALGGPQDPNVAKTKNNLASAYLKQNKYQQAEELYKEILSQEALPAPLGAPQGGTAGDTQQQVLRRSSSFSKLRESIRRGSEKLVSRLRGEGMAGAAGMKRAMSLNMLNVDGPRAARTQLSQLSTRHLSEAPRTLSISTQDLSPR
UniProt P20357: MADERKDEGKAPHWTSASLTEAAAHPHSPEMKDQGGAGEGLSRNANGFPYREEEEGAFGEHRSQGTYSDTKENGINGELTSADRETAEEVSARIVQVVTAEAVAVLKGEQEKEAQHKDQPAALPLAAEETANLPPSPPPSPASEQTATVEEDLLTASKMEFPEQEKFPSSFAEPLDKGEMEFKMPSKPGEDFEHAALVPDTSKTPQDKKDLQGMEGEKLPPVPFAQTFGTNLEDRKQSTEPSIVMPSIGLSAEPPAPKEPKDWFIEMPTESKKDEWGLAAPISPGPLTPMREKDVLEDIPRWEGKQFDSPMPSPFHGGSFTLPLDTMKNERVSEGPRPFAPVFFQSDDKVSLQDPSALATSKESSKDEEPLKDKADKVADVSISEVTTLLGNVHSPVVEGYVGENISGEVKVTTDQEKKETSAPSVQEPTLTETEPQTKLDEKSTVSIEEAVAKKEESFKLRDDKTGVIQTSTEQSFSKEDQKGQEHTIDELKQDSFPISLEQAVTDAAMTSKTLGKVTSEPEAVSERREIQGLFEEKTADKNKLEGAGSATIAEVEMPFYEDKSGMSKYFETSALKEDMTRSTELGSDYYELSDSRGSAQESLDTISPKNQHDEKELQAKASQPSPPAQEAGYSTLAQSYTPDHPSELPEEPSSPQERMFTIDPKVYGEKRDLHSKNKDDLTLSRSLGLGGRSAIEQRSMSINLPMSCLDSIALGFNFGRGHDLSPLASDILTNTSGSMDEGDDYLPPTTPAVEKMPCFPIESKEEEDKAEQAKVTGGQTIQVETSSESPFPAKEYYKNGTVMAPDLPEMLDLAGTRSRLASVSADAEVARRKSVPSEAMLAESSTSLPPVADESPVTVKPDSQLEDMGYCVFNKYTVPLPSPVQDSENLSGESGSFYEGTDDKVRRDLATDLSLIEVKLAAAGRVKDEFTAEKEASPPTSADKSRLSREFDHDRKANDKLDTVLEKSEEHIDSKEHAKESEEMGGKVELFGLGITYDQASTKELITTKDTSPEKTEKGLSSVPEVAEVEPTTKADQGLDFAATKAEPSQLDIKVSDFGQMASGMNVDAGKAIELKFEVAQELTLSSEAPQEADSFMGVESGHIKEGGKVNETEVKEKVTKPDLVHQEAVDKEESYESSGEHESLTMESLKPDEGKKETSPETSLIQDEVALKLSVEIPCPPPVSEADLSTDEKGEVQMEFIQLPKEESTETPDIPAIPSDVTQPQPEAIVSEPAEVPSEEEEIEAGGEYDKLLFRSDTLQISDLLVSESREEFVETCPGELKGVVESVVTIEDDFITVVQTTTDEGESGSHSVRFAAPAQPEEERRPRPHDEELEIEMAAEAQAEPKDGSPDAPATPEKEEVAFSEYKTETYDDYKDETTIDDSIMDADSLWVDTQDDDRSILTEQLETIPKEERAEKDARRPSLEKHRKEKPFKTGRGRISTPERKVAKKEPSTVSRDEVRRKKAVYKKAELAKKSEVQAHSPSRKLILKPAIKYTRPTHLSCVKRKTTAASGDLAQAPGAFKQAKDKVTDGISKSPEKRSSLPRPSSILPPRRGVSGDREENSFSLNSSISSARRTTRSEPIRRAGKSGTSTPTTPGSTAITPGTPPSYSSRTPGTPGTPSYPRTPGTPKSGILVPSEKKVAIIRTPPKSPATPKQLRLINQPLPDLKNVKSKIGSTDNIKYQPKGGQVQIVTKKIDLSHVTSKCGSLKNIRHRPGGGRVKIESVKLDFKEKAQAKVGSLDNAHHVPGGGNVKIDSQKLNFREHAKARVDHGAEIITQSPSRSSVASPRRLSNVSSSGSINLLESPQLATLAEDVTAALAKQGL
UniProt Q8JZP2: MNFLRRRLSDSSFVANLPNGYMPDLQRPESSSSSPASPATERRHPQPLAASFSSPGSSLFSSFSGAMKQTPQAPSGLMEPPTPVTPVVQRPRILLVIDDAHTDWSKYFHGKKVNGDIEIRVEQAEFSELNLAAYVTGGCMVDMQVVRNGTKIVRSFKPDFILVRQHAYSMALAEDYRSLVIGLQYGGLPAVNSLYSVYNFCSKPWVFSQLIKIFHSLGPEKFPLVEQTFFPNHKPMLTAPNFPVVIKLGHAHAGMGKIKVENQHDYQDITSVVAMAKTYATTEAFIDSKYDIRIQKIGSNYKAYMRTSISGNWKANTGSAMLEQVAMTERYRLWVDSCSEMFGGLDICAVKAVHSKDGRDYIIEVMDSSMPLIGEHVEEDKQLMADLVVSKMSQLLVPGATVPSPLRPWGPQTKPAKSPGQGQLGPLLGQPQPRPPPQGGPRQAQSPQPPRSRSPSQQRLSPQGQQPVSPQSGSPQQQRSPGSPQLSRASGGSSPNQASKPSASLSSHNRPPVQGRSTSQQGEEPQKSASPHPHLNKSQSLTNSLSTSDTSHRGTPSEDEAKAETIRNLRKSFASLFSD

target: GST-14-3-3ζ (UniProt P63104); assay: affinity purification with mass spectrometry

binding, binds:
Aak1 (from UniProt Q3UHJ0 1-959)
Abl1 (from UniProt P00520 1-1123)
Abl2 (from UniProt Q4JIM5 1-1182)
Agap2 (from UniProt Q3UHD9 1-1186)
Als2 (from UniProt Q920R0 1-1651)
Bsn (from UniProt O88737 1-3942)
Cacna1b (from UniProt O55017 1-2327)
Cacna1e (from UniProt Q61290 1-2272)
Cdk14 (from UniProt O35495 1-469)
Cdk16 (from UniProt Q04735 1-496)
Cdk17 (from UniProt Q8K0D0 1-523)
Hcn4 (from UniProt O70507 1-1201)
Iqsec1 (from UniProt Q8R0S2 1-961)
Kcnh7 (from UniProt Q9ER47 1-1195)
Kcnq2 (from UniProt Q9Z351 1-759)
Kif1a (from UniProt P33173 1-1695)
Kif21b (from UniProt Q9QXL1 1-1668)
Klc2 (from UniProt O88448 1-599)
Klc3 (from UniProt Q91W40 1-508)
Klc4 (from UniProt Q9DBS5 1-619)
Lrrc7 (from UniProt Q80TE7 1-1490)
Map2 (from UniProt P20357 1-1828)
Map4 (from UniProt P27546 1-1125)
Mark1 (from UniProt Q8VHJ5 1-795)
Mark3 (from UniProt Q03141 1-753)
Mast3 (from UniProt Q3U214 1-1321)
Mink1 (from UniProt Q9JM52 1-1308)
Nav1 (from UniProt Q8CH77 1-1875)
Nf1 (from UniProt Q04690 1-2841)
Nyap1 (from UniProt Q6PFX7 1-833)
Pclo (from UniProt Q9QYX7 1-5068)
Rab11fip2 (from UniProt G3XA57 1-512)
Rims2 (from UniProt Q9EQZ7 1-1530)
Srgap2 (from UniProt Q91Z67 1-1071)
Syn1 (from UniProt O88935 1-706)
Syn3 (from UniProt Q8JZP2 1-579)
Syngap1 (from UniProt F6SEU4 1-1340)
Syt7 (from UniProt Q9R0N7 1-403)
Tiam1 (from UniProt Q60610 1-1591)
Tiam2 (from UniProt Q6ZPF3 1-1715)
Tsc2 (from UniProt Q61037 1-1814)

Results are given in words; binding and its absence hold for the method and conditions named. In cells and extracts the contact can be indirect. Here binding means that the protein was enriched with, or labelled near, the bait; the list need not be complete.
